From paper PMC12040169 (PLOS Biology, 2025)
The list shows a part of the results.

system: T1, CTL2-GFP (C. trachomatis L2/434/Bu, GFP-expressing); parameters: species or system HeLa; Intracellular C. trachomatis growth in HeLa cells, bulk GFP fluorescence relative to DMSO; settings: bulk GFP, single well; 28.5 h, 10 µM; inhibitor
T1 construct: L2/434/Bu, GFP-expressing

Structure (SMILES) | % of control remaining [%]
COc1ccc(CC(=O)N2CC[C@H]3NC(=O)N(c4ccccc4)C(=O)[C@H]32)cc1 [CBK289278] | 121.357
FC(F)(F)c1cc(/C=C/c2cccs2)n[nH]1 [CBK020924] | 93.1903
N#CC1(NC(=O)CN2CCOC(Cn3cccn3)C2)CCCC1 (stereo not shown) [CBK304911] | 87.2745
Cc1ccccc1C(=O)NCCCNC(=O)c1ccccn1 [CBK269172] | 153.128
O=C(O)CCCn1c(-c2cccc([N+](=O)[O-])c2)nc(=S)c2c1CCCC2 [CBK265657] | 100
CC1CC1C(=O)N1CCCC(c2cc3cccnc3[nH]2)C1 (stereo not shown) [CBK282156] | 154.489
CCN(CC)CC(C)C(O)(c1ccccc1)c1ccccc1 (stereo not shown) [CBK012065C] | 149.061
COc1ccc(CCCC(=O)NCc2sc(-c3ccccc3)nc2C)cc1OC [CBK092353] | 99.9865
COCCCn1c(=O)[nH]c2ncc(-c3ccc(O)cc3)nc21 [CBK064425] | 170.815
O=C(c1ccco1)N1CCN(CC(=O)N2c3ccccc3OCC2c2ccccc2)CC1 (stereo not shown) [CBK239722] | 108.064
NS(=O)(=O)c1ccc(CNC(=O)c2ccc(-c3ccc(OC(F)(F)F)cc3)nc2)cc1 [CBK156246] | 115.465
O=C(NCCNC(=O)c1ccccc1I)c1ccccn1 [CBK269357] | 152.527
O=C(Nc1ccc(C(=O)N2CCOCC2)cc1)c1cc(-c2cccnc2)nc2ccc(Cl)cc12 [CBK267725] | 134.671
O=C(c1ccc(Nc2ccnc3cc(C(F)(F)F)ccc23)cc1)N1CCC(O)(c2cccc(C(F)(F)F)c2)CC1 [CBK012467] | 110.004
O=C(Nc1ccc(NC(=O)C2CC=CCC2C(=O)O)cc1Cl)C1CCCCC1 (stereo not shown) [CBK268772] | 132.711
Cc1cc(O)ccc1Nc1cc(-c2ccc3c(c2)OCO3)ncn1 [CBK091053] | 205.067
O=C(C1CCCCC1)N1CCC(c2n[nH]c3ncccc23)CC1 [CBK284905] | 139.972
COc1ccc(/C=C(\C)C(=O)NCc2ccc(OC3CCNCC3)cc2)cc1OC [CBK038914T] | 105.633
CC(=O)Oc1c(C)cc(CN(C)C(C)c2ccncc2)cc1C (stereo not shown) [CBK306915] | 142.187
COc1ccc(CN2CCN(Cc3cc(Br)ccc3O)CC2)cc1OC [CBK263632] | 107.303
O=S(=O)(Nc1ccc(-c2nnn[nH]2)cc1)c1cc(Cl)c(Cl)s1 [CBK154745] | 84.8236
Cc1c(C(=O)Nc2ccc(S(=O)(=O)NCC3CCCO3)cc2)cccc1[N+](=O)[O-] (stereo not shown) [CBK267533] | 143.639
O=C(Cn1cccn1)NC(Cc1ccsc1)c1nccs1 (stereo not shown) [CBK284666] | 76.6714
Cc1ccccc1OCC(=O)Oc1ccc(-c2cnc3ccccc3n2)cc1 [CBK264703] | 131.689
O=C(O)Cc1nn(Cc2ccccc2)c(=O)c2ccccc12 [CBK262315] | 74.2006
CN(C)Cc1ccccc1-n1cc(-c2cccnc2)nn1 [CBK113064] | 100
O=C(Nc1ccc2[nH]ccc2c1)c1ccc(Br)cc1Cl [CBK159679] | 74.109

Random excerpt: 3 records from the list.
Structure (SMILES) | % of control remaining [%]
Cc1ccccc1C(=O)NCCCNC(=O)c1ccccn1 [CBK269172] | 153.128
Cc1ccccc1OCC(=O)Oc1ccc(-c2cnc3ccccc3n2)cc1 [CBK264703] | 131.689
O=C(NCCNC(=O)c1ccccc1I)c1ccccn1 [CBK269357] | 152.527

Continued:

Structure (SMILES) | % of control remaining [%]
Nc1ncnc2[nH]c(SCc3nc4ccccc4n3Cc3ccccc3)nc12 [CBK264148] | 112.894
S=C(NCCN1CCCCC1)NCC1CCCO1 (stereo not shown) [CBK268129] | 76.7883
Cc1c(C(=O)N2CCOCC2)sc2nc(-c3ccc(Cl)cc3)nn12 [CBK010863] | 100.177
Cn1cccc1C(=O)Nc1ccccc1N1CCNCC1 [CBK029450T] | 101.195
CC1CCCN(c2ccc(NS(=O)(=O)c3ccc4[nH]c(=O)[nH]c(=O)c4c3)cc2)C1 (stereo not shown) [CBK286376] | 135.23
O=C(O)COc1ccccc1/C=C/c1cc(C(F)(F)F)[nH]c(=O)n1 [CBK287017] | 132.919
Clc1cc(NCCc2c[nH]c3ccccc23)n2nccc2n1 [CBK037218] | 167.237
O=C(NCC1CCCO1)C1CCCN(C(=O)c2cc(-c3ccccn3)[nH]n2)C1 (stereo not shown) [CBK210893] | 102.239
Cc1cnc(CNC(=O)N2CCN(c3ccc(F)cc3)CC2)cn1 [CBK156392] | 164.776
COCC1(C(=O)N2CC(=O)N(c3ccc(C)cc3)CC2C)CCC1 (stereo not shown) [CBK307606] | 101.785
CN(C)CCCN(Cc1cnn(-c2ccccc2)c1)Cc1ccco1 [CBK283040] | 90.6764
CC(NC(=O)c1cnc2n(c1=O)CCS2)c1ccccc1 (stereo not shown) [CBK287372] | 95.0225
COC(=O)CCn1c(-c2cccnc2C)cc2cccnc21 [CBK282593] | 90.9167
O=c1oc2ccccc2n1Cc1coc(-c2ccccc2)n1 [CBK296649] | 109.3
O=c1c(I)coc2ccc(Cl)cc12 [CBK005364] | 99.559
CCc1nn2c(=O)cc(CN3C(=O)COc4cccnc43)nc2s1 [CBK306599] | 109.548
O=C(Nc1ccc(F)cc1)c1ccccc1NS(=O)(=O)c1cc(Br)c(Cl)s1 [CBK045405] | 61.4357
Cc1cc(C)nc(N/C(=N\C(=S)Nc2cccc(Cl)c2C)NCc2cccnc2)n1 [CBK267254] | 104.613
COC(=O)[C@H]1O[C@H](c2ccccc2)[C@@H]2C(=O)N(C)C(=O)[C@@H]21 [CBK009058] | 134.684
CCCN(CCC)CCc1cccc2c1CCN2C(=O)c1cc2ccccc2s1 [CBK017871C] | 8.849
COCc1cn([C@H]2CO[C@H]3[C@@H]2OC[C@@H]3NC(=O)c2ccc(OC)cc2)nn1 [CBK289494] | 117.461
O=C(c1ccc(F)cc1)N1CCC(c2cc3cnccc3[nH]2)CC1 [CBK283445] | 125.099
COc1ccc(C(c2ccccc2C)N(C)C(=O)C2CCN(C(C)=O)CC2)cn1 (stereo not shown) [CBK060490] | 111.307
O=C(Nc1ccc(Cl)cc1)N1CCC(n2c(=O)[nH]c3ccccc32)CC1 [CBK149850] | 131.073
Cc1cc(COC(=O)c2nn(-c3ccc(F)cc3)c3c2CCCC3)on1 [CBK295305] | 131.539
COc1ccnc(C(=O)N(Cc2ccccn2)CC2CCCO2)c1 (stereo not shown) [CBK307303] | 134.038
O=C(O)c1ccc(COc2ccc3ccccc3c2/C=C2/NC(=O)N(c3ccccc3)C2=O)cc1 [CBK265124] | 101.905

Some of these compounds in order of molar mass, descending:
Structure (SMILES) | % of control remaining [%]
CC1CCCN(c2ccc(NS(=O)(=O)c3ccc4[nH]c(=O)[nH]c(=O)c4c3)cc2)C1 (stereo not shown) [CBK286376] | 135.23
COc1ccc(/C=C(\C)C(=O)NCc2ccc(OC3CCNCC3)cc2)cc1OC [CBK038914T] | 105.633
Cc1ccccc1OCC(=O)Oc1ccc(-c2cnc3ccccc3n2)cc1 [CBK264703] | 131.689
COCCCn1c(=O)[nH]c2ncc(-c3ccc(O)cc3)nc21 [CBK064425] | 170.815

The results go on:

Structure (SMILES) | % of control remaining [%]
CCOC(=O)N1CCN(S(=O)(=O)c2cc(C(=O)O)c(Cl)cc2Cl)CC1 [CBK296975] | 146.617
CCOc1ccccc1-c1ccccc1NC(=O)c1ccc2c(c1)ncn2C1CC1 [CBK285808] | 95.8836
COc1ccc(-c2csc(NC(=O)NS(=O)(=O)c3ccc(C)cc3)n2)cc1 [CBK296117] | 133.491
O=C(N/N=C/c1ccccc1)c1ccccn1 [CBK261640] | 124.359
OC1(c2ccc(F)cc2)COC2(CCNCC2)C1 (stereo not shown) [CBK284214] | 138.296
CCN(CC)C(=O)C1CCCN(C(=O)NCC(c2ccccc2)c2ccccc2)C1 (stereo not shown) [CBK156145] | 59.4789
OC(CNCc1cccs1)COc1cccc2c1CCCC2 (stereo not shown) [CBK002239] | 106.582
O=C(NNc1ccccc1)c1c(O)c2ccccc2oc1=O [CBK260878] | 100
O=C(Nc1ccccc1C(=O)O)c1cccc(S(=O)(=O)NCc2ccccc2)c1 [CBK261258] | 71.9043
COc1ccccc1-c1ccc(CNC(Cc2ccsc2)c2nccs2)cc1 (stereo not shown) [CBK286315] | 83.8114
Cc1ccc(Nc2nc(N)nc(CN3CCCC3)n2)cc1 [CBK270163] | 106.522
c1ccc(CN2CCN(c3cncc(-c4cccs4)n3)CC2)nc1 [CBK065734] | 107.575
O=C(c1cc(F)c(F)cc1F)N1CCC2(CCN(Cc3cc(=O)[nH]c(=O)[nH]3)C2)C1 (stereo not shown) [CBK132141] | 95.5884
COc1ccc(-c2ncc(OCc3cccs3)nc2N)c(OC)c1 [CBK145088] | 178.742
COc1ccccc1-c1nccnc1OCCc1c[nH]c2ccccc12 [CBK106807] | 116.691
CC(C)c1ccc(S(=O)(=O)Nc2ccon2)cc1 [CBK044584] | 121.096
CCNc1cncc(-c2cc(OC)c(OC)c(OC)c2)n1 [CBK065336] | 111.023
O=C(NCC1CCCN1)c1cc2cc(Cl)ccc2[nH]1 (stereo not shown) [CBK115917C] | 89.7455
Cc1cc(C)nc(N(C#N)CC(=O)c2ccc(Br)cc2)n1 [CBK266562] | 165.488
Cc1cccc(CN(CCN)C(=O)NC2C[C@H]2c2ccccc2)n1 (stereo partly shown) [CBK046220C] | 138.889
CCOC(=O)/C(=N/Nc1cccc(C)c1)c1csc(N)n1 [CBK261059] | 74.4932
COc1cc(/C=C2\C(=O)NN(c3ccccc3)C2=O)ccc1OCCOc1cc(C)ccc1C [CBK263947] | 132.011
CCCN1CC(NS(=O)(=O)c2cc(OC)c(C)cc2OC)CC1=O (stereo not shown) [CBK307036] | 160.592
CCOc1ccc(NC(=O)CCc2ncc(C(C)(C)C)o2)c(C)c1 [CBK306021] | 104.388
Cc1cccc(-c2csc3c(=O)[nH]c(N4CCC5(CC4)OCCO5)nc23)c1 [CBK291142] | 142.568
